Here are results for 59 molecules from PubChem BioAssay AID2685 (National Center for Advancing Translational Sciences (NCATS), 2010).

Each structure is given as a SMILES string. Values joined by “and” are separate entries in the source; they are usually repeats but may differ in a detail not shown here. Equal entries are not always repeated. The list shows a part of the results. These are further read-outs of the screen, such as a control signal, another cell line or another target. No call is given for them. The list favours compounds with an active or inconclusive main result. Words in brackets tell the shape of the fitted curve; partial curves, single points and poor fits give uncertain potencies.

This assay in a line: qHTS Assay for Lipid Storage Modulators in Drosophila S3 Cells.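 For cell number change: cells counted by Cell Tracker Red CMTPX staining in the red channel.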 The settings on record: BODIPY lipid droplet fluorescence, 18-24 h; for cell number change: measured here: cell count max response, cells fed with added oleic acid. A digest of the protocol:
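Drosophila S3 cells loaded with oleic acid (400 uM, as added) and compounds at several concentrations; lipid droplets imaged by 488-nm laser-scanning cytometry, 500–530 nm intensity and object ratio to cell channel. Percent activity normalized to 20 uM Triacsin C.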
(In qHTS, concentration-response curves come from the screen itself.)

Where [1] appears, read: measured here: lipid fluorescence (Fed channel) AC50, cells fed with added oleic acid.
Setting [2] is: measured here: cell number channel AC50, cells fed with added oleic acid.

The term AC50 denotes the midpoint of the concentration-response curve, whichever way the signal moves.

As for `CC(C)(C)c1ccc(S(=O)(=O)Nc2ccc(C(=O)N3CCCC3)cc2)cc1`, the cell number change was -3.18%. The AC50 under setting [1] is 32.6 µM [falling, single point].
On to `Cc1nc(N)c(Cc2ccccc2F)c(N)n1`, for which the cell number change came out at 14%. Besides, the AC50 under setting [2] was 0.58 µM [rising, full curve]. Besides, the AC50 under setting [1] is 0.58 µM [rising, single point].
Consider `Cc1sc2ncnc(N3CCC(C(=O)Nc4ccc(S(N)(=O)=O)cc4)CC3)c2c1C`, for which the cell number change was found to be 35.8%. Moreover, the AC50 under setting [2] is 16.4 µM [rising, partial curve]. In addition, under setting [1], the AC50 was 11.6 µM [rising, partial curve].
With `COc1ccc(CC(=O)OC(C)C(=O)NCc2ccc3c(c2)OCO3)cc1OC` (configuration not stated), the cell number change is -11.4%. The AC50 under setting [1] is 0.92 µM [falling, partial curve].
Turning to `CC(=O)N=c1sccn1CC(O)c1ccccc1` (configuration not stated), the cell number change was -2.22%.
As for `Cn1c(CSCc2ccc(Cl)cc2Cl)n[nH]c1=S`, the cell number change was -1.91%. In addition, under setting [2], the AC50 was 1.64 µM [falling, partial curve]. In addition, the AC50 under setting [1] is 1.46 µM [falling, partial curve].
For `Cc1cccc(C)c1NC(=O)CS(=O)CC(=O)NCCCc1ccccc1` (configuration not stated), the cell number change is -10.6%.
As to `Cc1cccc(/C=N/n2c(-c3ccccc3)n[nH]c2=S)c1O`, the cell number change is 10.3%. Besides, the AC50 under setting [1] is 3.66 µM [rising, single point].
Turning to `CC1CCC(C(C)C)C(OCC(O)CNC(C)c2ccccc2)C1` (configuration not stated), the cell number change was 8.81%. Moreover, under setting [1], the AC50 is 0.82 µM [rising, full curve, poor fit].
Consider `N#CCOC(=O)C1CCN(S(=O)(=O)c2ccc3c(c2)OCCO3)CC1`, for which the cell number change is -25%. The AC50 under setting [1] is 0.731 µM [rising, full curve, poor fit].
Consider `COc1ccccc1C1C(C(C)=O)=C(O)C(=O)N1c1ccc(O)cc1` (configuration not stated), for which the cell number change was -13.9%. For the same molecule, the concentration at half-maximal activity (AC50) under setting [1] was 5.8 µM [rising, single point].
As to `CCOc1ccc(/C=N/NC(=O)Cc2csc(Nc3cccc(C(F)(F)F)c3)n2)c(OCC)c1`, the cell number change is -5.79%.
Regarding `CC(C)(CO)NC(=O)CCCOc1ccc(Cl)cc1Cl`, the cell number change is -203%. Also, the AC50 under setting [2] is 23.1 µM [falling, partial curve]. For the same molecule, under setting [1], the concentration at half-maximal activity (AC50) was 6.51 µM [falling, single point].
In the case of `CN(C(=O)COC(=O)C1COc2ccccc2O1)C1(C#N)CCCCC1` (configuration not stated), the cell number change was -63.3%. The AC50 under setting [2] is 29.1 µM [falling, single point]. In addition, the AC50 under setting [1] was 29.1 µM [falling, single point].
`O=C(Nc1cccc(-n2cnnn2)c1)c1ccoc1COc1ccc(Cl)cc1`: the AC50 under setting [1] was 32.6 µM [falling, partial curve, poor fit].
Turning to `O=C(O)COc1cccc(NC(=O)C2CCCO2)c1` (configuration not stated), the cell number change was -5.31%.
Take `O=C(CC1N=C2c3ccccc3N=C(SCc3ccccc3Cl)N2C1=O)NCc1ccco1` (configuration not stated): the cell number change is -12.2%. Further, the AC50 under setting [2] was 0.116 µM [falling, full curve, poor fit]. Also, the AC50 under setting [1] is 0.58 µM [falling, single point].
Regarding `CCOc1ccc(C(=O)N/N=C(\c2ccccc2)c2ccccn2)cc1`, the AC50 under setting [1] is 6.51 µM [falling, single point].
Take `Cc1c(C(=O)NC2CCS(=O)(=O)C2)oc2ccccc12` (configuration not stated): the cell number change is -2.25%. Besides, the AC50 under setting [1] is 0.58 µM [rising, single point].
On to `CCC(CC)C(=O)Nc1cccc(C(=O)NC(C)(C)C)c1`, for which the cell number change came to 20.7%.
Same read-out and setting: as for `CN1CCN(CC(O)COc2ccccc2)CC1` (configuration not stated), the figure is 0.351%.
Take `CCCCC(CC)C(=O)Nc1ccc(S(=O)(=O)N2CCCC2)cc1` (configuration not stated): the cell number change was -18.5%. Also, the AC50 under setting [1] is 14.6 µM [falling, single point].
Turning to `CCOc1ccc(C2Nc3ccccc3C(CC)(CC)O2)cc1` (configuration not stated), the cell number change was 11%. Also, under setting [2], the AC50 is 0.461 µM [rising, full curve, poor fit]. Moreover, the AC50 under setting [1] was 1.16 µM [rising, full curve].
Consider `O=C(CN(Cc1ccccc1)C(=O)CNS(=O)(=O)c1ccccc1)NCC1CCCO1` (configuration not stated), for which the cell number change stood at 24.8%.
Take `CCOc1c2ccc(C(=O)NCc3ccc(C(F)(F)F)cc3C(F)(F)F)cc2nn1C`: the cell number change worked out at 8.08%. The half-maximal activity concentration (AC50) under setting [1] was 29.1 µM [rising, single point].
With `COc1ccc(Nc2nc(C)cc(C)c2C#N)c(OC)c1`, the cell number change is 14.7%. Also, the AC50 under setting [1] is 29.1 µM [rising, single point].
For `CCn1c2nc(SCCN3CCOCC3)nnc2c2cc(C)cc(C)c21`, the cell number change was -32.6%. In addition, under setting [2], the AC50 is 9.2 µM [falling, partial curve]. Moreover, the AC50 under setting [1] is 4.11 µM [falling, full curve].
Take `Cc1ccc(-c2csc(N(Cc3ccco3)C(=O)c3cccs3)n2)cc1`: the cell number change was 10.3%. The AC50 under setting [2] is 0.82 µM [rising, full curve, poor fit]. In addition, the AC50 under setting [1] is 0.58 µM [rising, full curve].
Turning to `Nn1c(SCC(=O)Nc2ccccc2F)nc2ccccc2c1=O`, the cell number change is -14.4%.
`Cc1cc(=O)[nH]c(SCc2cn3ccccc3n2)n1`: the cell number change was found to be 19.6%. Besides, the AC50 under setting [2] was 0.411 µM [rising, full curve, poor fit]. The half-maximal activity concentration (AC50) under setting [1] is 0.00411 µM [rising, partial curve, poor fit].
With `Cc1cccc(C(=O)NNC2=C(C(=O)C(F)(F)F)CCC2)c1O`, the cell number change is -47.3%. Moreover, under setting [2], the concentration at half-maximal activity (AC50) is 29.1 µM [falling, single point].
For `NC1=NC[C@H](Cc2ccc(O)cc2)N1CCCCC1CCCCC1`, the cell number change is -45.1%. The AC50 under setting [2] was 32.6 µM [falling, single point]. Besides, under setting [1], the AC50 is 29.1 µM [falling, partial curve, poor fit].
As for `COc1ccc(-c2cn(-c3ccccc3)c3[n+]2CCS3)cc1`, the cell number change was -4.81% and -8.11%. Also, the half-maximal activity concentration (AC50) under setting [2] was 6.51 µM [rising, single point] and 184 nM [rising, full curve, poor fit]. Further, the AC50 under setting [1] is 461 nM [falling, single point] and 3.66 µM [rising, partial curve, poor fit].
`CC(=O)Nc1ccc(C)c(NC(=S)Nc2ccc(F)cc2)c1`: the cell number change was -41.9%. Also, the half-maximal activity concentration (AC50) under setting [2] is 1.03 µM [falling, full curve]. In addition, the AC50 under setting [1] was 0.92 µM [falling, full curve].
Regarding `CC(=O)c1cccc(NC(=O)C(C)OC(=O)c2ccc3ncsc3c2)c1` (configuration not stated), the cell number change was -14.7%. In addition, under setting [1], the half-maximal activity concentration (AC50) is 4.11 µM [falling, single point].
Consider `O=C(CCc1ccc(S(=O)(=O)NCc2ccccc2)cc1)NCc1cccnc1`, for which the AC50 under setting [1] was 0.146 µM [rising, full curve, poor fit].
For the molecule `CCCCCc1cc(=O)oc2c(C(CCN3CCN(c4ccccc4)CC3)c3ccc(N(C)C)cc3)c(OC)cc(OC)c12` (configuration not stated), the cell number change is -28.3%. In addition, the AC50 under setting [1] was 29.1 µM [falling, single point].
Regarding `COC(=O)c1ccc(OC(=O)C2CSC3(C)CCC(=O)N23)cc1` (configuration not stated), the cell number change was -16.5%.
Consider `C/C(N)=C(/C#N)C(=O)CSc1nc2ccccc2c(=O)n1-c1ccc(C)cc1`, for which the cell number change stood at 5.56%. The AC50 under setting [1] was 0.731 µM [rising, full curve, poor fit].
Regarding `COC(=O)/C(=C/c1ccc2c(c1)c1ccccc1n2C)NC(=O)c1ccccc1`, the cell number change came to 44.6%. The AC50 under setting [2] is 32.6 µM [rising, single point]. Besides, the AC50 under setting [1] was 29.1 µM [rising, single point].
In the case of `Cc1cc(/C=C(\C#N)C(=O)Nc2ccc(Cl)cc2)c(C)n1-c1ccc(N2CCOCC2)c([N+](=O)[O-])c1`, the cell number change amounted to 16.6%. Further, the AC50 under setting [1] was 1.64 µM [rising, full curve, poor fit].
Regarding `Cc1ccccc1COc1cccc(/C=N/NC(=O)c2nnn(-c3nonc3N)c2C)c1`, the cell number change was 24%.
Same read-out and setting: the result for `CC(C)OC(=O)CSc1nnc(-c2ccccn2)n1N` reads 24.7%.
`CC(=O)c1cccc(Nc2nc(N3CCOCC3)nc(N3CCOCC3)n2)c1`: the cell number change turned out to be 0.59%. Besides, under setting [2], the half-maximal activity concentration (AC50) is 3.26 µM [rising, single point]. The AC50 under setting [1] is 1.84 µM [rising, partial curve].
As for `Cc1ccccc1NC(=O)C1CC(=O)N(c2ccccc2F)C1` (configuration not stated), the AC50 under setting [2] is 0.0651 µM [rising, full curve, poor fit].
In the case of `O=C(COC(=O)CNC(=O)c1ccc(Cl)c([N+](=O)[O-])c1)NNC(=O)c1ccccc1F`, the cell number change was -19.7%.
As for `O=C(CSc1nnc(-c2cnccn2)n1Cc1ccco1)c1ccc(Cl)cc1`, the cell number change was determined as 104%. In addition, the AC50 under setting [2] is 2.31 µM [falling, partial curve]. In addition, the AC50 under setting [1] is 6.51 µM [falling, single point].
Regarding `CCCSc1ccc([C@H]2N[C@@](C)(C(=O)OC)[C@H]3C(=O)N(C)C(=O)[C@@H]23)cc1OC`, the cell number change was determined as 22.8%. In addition, the AC50 under setting [1] was 11.6 µM [rising, single point].
`C[C@@]12C(=O)Nc3ccccc3C(=O)N1[C@H]1c3cc(Br)ccc3OC[C@@H]1[C@@H]2c1ccccc1`: the cell number change worked out at 3.17%. For the same molecule, the AC50 under setting [1] is 4.11 µM [rising, single point].
With `Cc1cc(Nc2cccc(Cl)c2)n2ncnc2n1`, the cell number change was 42.4%. Under setting [2], the AC50 is 25.9 µM [rising, single point]. Also, the AC50 under setting [1] is 5.17 µM [rising, full curve].
Take `Cc1ccc(NC(=O)CN(C)C(=O)Cc2ccc(Cl)cc2Cl)cc1`: the cell number change was -0.901%.
`CN1CCC(NC(=S)NC2CC2)CC1`: the cell number change came to 26.9%. Besides, under setting [1], the AC50 is 0.0891 µM [rising, full curve, poor fit].
`COc1ccccc1-c1nc(-c2ccc(Br)o2)no1`: the cell number change is -31.9%. The AC50 under setting [2] was 0.184 µM [falling, full curve, poor fit]. Also, the AC50 under setting [1] was 20.6 µM [rising, single point].
Consider `O=c1c(Cc2c(F)cccc2Cl)c(O)ccn1CCc1ccccn1`, for which, under setting [1], the AC50 was 11.2 µM [falling, partial curve].
Take `O=C(CSc1nncs1)Nc1ccc(Cl)cc1C(F)(F)F`: the cell number change was -3.7%.
On to `CCOC(=O)c1c(C)[nH]c(N=Nc2ccccc2C)c1C`, for which the cell number change is -88.2%. Besides, the AC50 under setting [2] is 29.1 µM [falling, single point].
As for `COc1cc(-c2noc(C)c2C#Cc2ccccn2)cc(OC)c1OC`, the cell number change is -10.7%. Further, the half-maximal activity concentration (AC50) under setting [1] was 23.1 µM [rising, single point].
For the molecule `C=CCSc1nnc2n(-c3ccccc3OC)c(=O)c3c4c(sc3n12)CCC4`, the cell number change was -25.4%. For the same molecule, the AC50 under setting [1] is 0.411 µM [rising, full curve].
For the molecule `Cc1ccccc1-n1c(Cn2c(=O)sc3ccccc32)nnc1SCC(N)=O`, the cell number change is -66.7%. The AC50 under setting [1] was 29.1 µM [falling, single point].
